Results are given in words; binding and its absence hold for the method and conditions named. Binding seen in cells or lysates may run through a third protein. Some binding calls cover weakened binding; strength is not graded here.
Assays:
[1] = target: T1, proteolipid protein (PLP) (human (endogenous in HOG)) (UniProt P60201); experiment: co-IP; GFP-MAL2/HOG cell lysate (50 mM Tris-HCl pH 6.8, 150 mM NaCl, 1% Triton X-100); immunoprecipitated with monoclonal anti-PLP or polyclonal anti-GFP antibody, 2 h at 4°C, captured on protein A-Sepharose; immunoblot with anti-PLP or anti-GFP; controls were preimmune mouse or rabbit serum and a sample without primary antibody
T1 sequence: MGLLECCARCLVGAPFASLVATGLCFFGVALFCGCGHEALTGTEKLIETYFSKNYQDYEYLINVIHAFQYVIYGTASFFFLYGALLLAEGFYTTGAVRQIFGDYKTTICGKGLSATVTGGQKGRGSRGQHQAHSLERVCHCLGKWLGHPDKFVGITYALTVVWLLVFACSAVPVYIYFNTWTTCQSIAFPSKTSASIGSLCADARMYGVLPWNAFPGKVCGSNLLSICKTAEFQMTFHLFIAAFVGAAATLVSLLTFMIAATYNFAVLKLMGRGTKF

Amino acid sequences for entries named in this document (tags omitted).
UniProt Q969L2: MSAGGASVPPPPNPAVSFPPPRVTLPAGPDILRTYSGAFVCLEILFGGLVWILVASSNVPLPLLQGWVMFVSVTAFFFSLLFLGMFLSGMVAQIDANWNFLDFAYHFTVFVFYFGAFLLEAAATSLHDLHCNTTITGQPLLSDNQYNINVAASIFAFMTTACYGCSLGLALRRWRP

[2] = target: GFP-MAL2 (green fluorescent protein fused to the amino-terminal end of MAL2) (UniProt Q969L2); experiment: as above

| Molecule | binding [1] | binding [2] |
| --- | --- | --- |
| GFP-MAL2 (green fluorescent protein fused to the amino-terminal end of MAL2) (from UniProt Q969L2 1-176) | binds |  |
| proteolipid protein (PLP) (protein, UniProt P60201 1-277) MGLLECCARCLVGAPFASLVATGLCFFGVALFCGCGHEALTGTEKLIETYFSKNYQDYEYLINVIHAFQYVIYGTASFFFLYGALLLAEGFYTTGAVRQIFGDYKTTICGKGLSATVTGGQKGRGSRGQHQAHSLERVCHCLGKWLGHPDKFVGITYALTVVWLLVFACSAVPVYIYFNTWTTCQSIAFPSKTSASIGSLCADARMYGVLPWNAFPGKVCGSNLLSICKTAEFQMTFHLFIAAFVGAAATLVSLLTFMIAATYNFAVLKLMGRGTKF |  | binds |

From publication PMC3090389
